Reference: ChEMBL document CHEMBL1129258, “Synthesis and structure-activity relationships of 2-pyridones: a novel series of potent DNA gyrase inhibitors as antibacterial agents” (J Med Chem, 1996)

By UniProt entry, the sequences of proteins in these tests, tags left out.
UniProt P0AES4, whole entry, looked up: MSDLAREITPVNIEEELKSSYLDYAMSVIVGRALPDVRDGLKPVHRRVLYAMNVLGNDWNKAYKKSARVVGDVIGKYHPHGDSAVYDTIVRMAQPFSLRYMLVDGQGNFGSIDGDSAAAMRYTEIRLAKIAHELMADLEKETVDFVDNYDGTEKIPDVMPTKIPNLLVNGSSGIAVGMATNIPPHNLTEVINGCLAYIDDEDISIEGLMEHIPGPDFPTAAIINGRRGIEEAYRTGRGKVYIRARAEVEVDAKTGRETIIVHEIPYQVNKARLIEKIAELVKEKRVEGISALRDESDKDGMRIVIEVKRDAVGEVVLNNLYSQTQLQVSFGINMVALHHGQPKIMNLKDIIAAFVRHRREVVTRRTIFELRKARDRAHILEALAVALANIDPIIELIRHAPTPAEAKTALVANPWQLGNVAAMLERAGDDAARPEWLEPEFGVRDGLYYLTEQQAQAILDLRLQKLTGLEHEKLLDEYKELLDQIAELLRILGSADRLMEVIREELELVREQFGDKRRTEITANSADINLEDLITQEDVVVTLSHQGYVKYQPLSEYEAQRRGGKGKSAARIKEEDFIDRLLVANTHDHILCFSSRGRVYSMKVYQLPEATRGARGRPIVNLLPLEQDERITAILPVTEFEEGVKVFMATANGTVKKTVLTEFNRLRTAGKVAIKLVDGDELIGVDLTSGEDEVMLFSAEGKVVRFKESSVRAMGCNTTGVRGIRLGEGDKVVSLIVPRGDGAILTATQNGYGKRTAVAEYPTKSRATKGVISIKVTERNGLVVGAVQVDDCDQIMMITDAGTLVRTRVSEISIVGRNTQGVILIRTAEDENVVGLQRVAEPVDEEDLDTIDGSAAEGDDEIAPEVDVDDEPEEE

Key:
[1] = molecular target: T1, DNA gyrase (Escherichia coli) (UniProt P0AES6+P0AES4); experiment: In vivo efficacy against Escherichia coli JUHL after oral administration; type: functional, organism-based; conditions: Escherichia coli K-12
[2] = molecular target: T1, DNA gyrase (Escherichia coli); experiment: In vivo efficacy against Escherichia coli JUHL by subcutaneous administration; type: functional, organism-based; conditions: Escherichia coli K-12

## Cl.O=C(O)c1cn(C2CC2)c2cc(N3CCNCC3)c(F)cc2c1=O [CIPROFLOXACIN HYDROCHLORIDE]
[1]
  ED50: 1 mg/kg
[2]
  ED50: 0.1 mg/kg
